Legend:
erythrocytes = assay: Laser diffraction ektacytometry (deformability index)
[1] = general procedure: Boc solid-phase peptide synthesis; 4-methylbenzhydrylamine (4-MBHA) resin; conditions: whole synthesis, 220 nm

| Substance | deformability properties (laser ektacytometry) compared with control and untreated erythrocytes (erythrocytes) | plateau deformability index (erythrocytes; normal range 0.6±0.02 from more than 200 individuals) | crude HPLC purity [1] |
| --- | --- | --- | --- |
| thrombo-erythrocytes: erythrocytes covalently conjugated through Mal-Sac-HNSA to the peptide acetyl-Cys-Gly-Gly-Arg-Gly-Asp-Phe-amide (Ac-CGGRGDF-NH2) (N-acetyl, C-amide, conjugated to erythrocytes via Mal-Sac-HNSA; printed: Cys-Gly-Gly-Arg-Gly-Asp-Phe-) | same deformability properties | within the normal range | – |
| Ac-CGGRGDF-NH2 | – | – | 45-57% |
